Experimental data published in US4198431A, “Alkyl N-(3-trifluoromethylphenyl)-anthranilate” (Hokuriku Pharmaceutical Co., Ltd., priority 1978, dated 1980).
Some of these results come from one statement about several compounds together.

What follows are compounds tested on carrageenin edema (assay: Carrageenin edema-preventing effect, 5% ointment (Table 2)). Settings: tests of the same nature and comparable.
Assay type: in vivo, rat (Wistar, female)
Method: Next, the carrageenin edema-preventing effect [E. Yamazaki, et al., Folia Pharmacologica Japonica, vol. 63, page 302 (1967)] was examined using an ointment containing a five-percent(5%) concentration of active ingredient. Using ten (10) Wistar female rats as one grouping, each test compound was applied at the rate of fifty (50) mg/rat onto the sole of the rear paws […] (30) minutes. After carrageenin was subcutaneously administered (1% carrageenin: 0.1 ml/rat) at the ointment-administered area, the volume was measured over a period of five (5) hours, during which a definite amount (50 mg/rat) of each test compound was administered every hour over a period of four (4) hours after the first measurement of the paw volume. The edema-preventing effect was thus determined in contrast to known compounds. In Table 2 following, the swelling percent (rate of volume increase) is given. The figures in parenthesis indicate the rate of edema prevention which was calculated in contrast to control. In control, carrageenin alone was administered.
With CC(C)COC(=O)c1ccccc1Nc1cccc(C(F)(F)F)c1 [Example 4] the “anti-inflammatory activity compared in the same manner as the n-butyl compound” value was “enhanced anti-inflammatory activity”.
CCC(C)OC(=O)c1ccccc1Nc1cccc(C(F)(F)F)c1 (stereo not drawn) [Example 5] was tested, and the “anti-inflammatory activity compared in the same manner as the n-butyl compound” value was “enhanced anti-inflammatory activity”.
In the case of CC(C)(C)OC(=O)c1ccccc1Nc1cccc(C(F)(F)F)c1 [Example 6], the “anti-inflammatory activity compared in the same manner as the n-butyl compound” value is reported as “enhanced anti-inflammatory activity”.
CCCCCOC(=O)c1ccccc1Nc1cccc(C(F)(F)F)c1 [Example 7] was tested, and the “anti-inflammatory activity compared in the same manner as the n-butyl compound” value was “enhanced anti-inflammatory activity”.
For CC(C)CCOC(=O)c1ccccc1Nc1cccc(C(F)(F)F)c1 [Example 8], the “anti-inflammatory activity compared in the same manner as the n-butyl compound” value was “enhanced anti-inflammatory activity”.
With CCC(C)(C)OC(=O)c1ccccc1Nc1cccc(C(F)(F)F)c1 [Example 9] the “anti-inflammatory activity compared in the same manner as the n-butyl compound” value was “enhanced anti-inflammatory activity”.
In the case of CCCCCCOC(=O)c1ccccc1Nc1cccc(C(F)(F)F)c1 [Example 10], the “anti-inflammatory activity compared in the same manner as the n-butyl compound” value is reported as “enhanced anti-inflammatory activity”.
With CCCCCCCOC(=O)c1ccccc1Nc1cccc(C(F)(F)F)c1 [Example 11] the “anti-inflammatory activity compared in the same manner as the n-butyl compound” value was “enhanced anti-inflammatory activity”.
CCCCCCCCOC(=O)c1ccccc1Nc1cccc(C(F)(F)F)c1 [Example 12] was tested, and the “anti-inflammatory activity compared in the same manner as the n-butyl compound” value was “enhanced anti-inflammatory activity”.
